Laboratory results reported in article PMC2243017.
Results are given in words; binding and its absence hold for the method and conditions named. For some assays here: Binding seen in cells or lysates may run through a third protein. Some entries that bind do so weakly or less than the wild type. For some assays here: Tags and fused reporters may be left off the sequences shown.

By UniProt entry, the sequences of proteins in these tests, tags left out. Where a name states a change or a piece, a line headed by the entry shows the natural chain unless it says otherwise. Chains listed by the source or under a name are the forms on record and can include a tag or linker.
UniProt Q86Y07: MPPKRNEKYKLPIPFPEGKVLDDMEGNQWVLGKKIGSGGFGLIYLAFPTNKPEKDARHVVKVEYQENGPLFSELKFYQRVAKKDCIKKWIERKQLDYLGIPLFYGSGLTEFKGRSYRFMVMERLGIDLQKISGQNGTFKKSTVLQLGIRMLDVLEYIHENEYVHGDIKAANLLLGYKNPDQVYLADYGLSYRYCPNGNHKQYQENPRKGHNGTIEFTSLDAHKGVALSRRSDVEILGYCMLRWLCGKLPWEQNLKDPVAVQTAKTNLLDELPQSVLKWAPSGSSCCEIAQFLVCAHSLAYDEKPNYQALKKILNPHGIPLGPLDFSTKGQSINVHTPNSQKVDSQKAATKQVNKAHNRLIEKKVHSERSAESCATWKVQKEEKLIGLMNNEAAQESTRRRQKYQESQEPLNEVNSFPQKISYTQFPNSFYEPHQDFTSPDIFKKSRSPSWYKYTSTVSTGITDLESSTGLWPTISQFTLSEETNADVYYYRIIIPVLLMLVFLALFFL
GST-VRK2B (mammalian expression) (Q86Y07-2, form named): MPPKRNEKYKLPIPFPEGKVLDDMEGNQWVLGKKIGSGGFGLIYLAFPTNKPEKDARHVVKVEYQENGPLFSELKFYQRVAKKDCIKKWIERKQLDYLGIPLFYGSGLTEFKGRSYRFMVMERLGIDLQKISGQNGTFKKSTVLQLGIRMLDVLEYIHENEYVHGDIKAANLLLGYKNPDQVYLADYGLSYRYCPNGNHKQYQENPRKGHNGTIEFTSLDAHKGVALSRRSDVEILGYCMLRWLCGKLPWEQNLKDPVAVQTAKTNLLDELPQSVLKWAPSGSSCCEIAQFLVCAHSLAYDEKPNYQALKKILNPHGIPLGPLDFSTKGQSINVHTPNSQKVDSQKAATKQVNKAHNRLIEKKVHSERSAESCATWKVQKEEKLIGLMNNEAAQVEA
UniProt Q9UQF2: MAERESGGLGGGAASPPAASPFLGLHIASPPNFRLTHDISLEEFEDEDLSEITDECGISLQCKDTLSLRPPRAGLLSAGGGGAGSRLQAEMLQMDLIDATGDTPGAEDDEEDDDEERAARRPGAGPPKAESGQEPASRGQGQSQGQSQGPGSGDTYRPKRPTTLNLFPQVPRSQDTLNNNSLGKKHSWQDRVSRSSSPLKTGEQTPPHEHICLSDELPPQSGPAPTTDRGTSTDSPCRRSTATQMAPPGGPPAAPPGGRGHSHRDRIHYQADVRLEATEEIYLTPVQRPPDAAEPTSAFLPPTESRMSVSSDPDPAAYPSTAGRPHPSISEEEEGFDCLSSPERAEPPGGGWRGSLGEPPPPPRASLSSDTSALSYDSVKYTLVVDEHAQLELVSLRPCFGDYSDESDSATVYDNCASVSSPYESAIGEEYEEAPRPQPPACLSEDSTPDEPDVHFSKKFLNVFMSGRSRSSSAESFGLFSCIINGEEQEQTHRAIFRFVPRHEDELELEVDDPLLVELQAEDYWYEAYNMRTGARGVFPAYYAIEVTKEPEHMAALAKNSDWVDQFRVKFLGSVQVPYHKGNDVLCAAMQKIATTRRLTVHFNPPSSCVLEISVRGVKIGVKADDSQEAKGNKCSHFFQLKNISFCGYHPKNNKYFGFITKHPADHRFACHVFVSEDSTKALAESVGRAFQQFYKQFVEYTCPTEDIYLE

T1: GST-JIP1 (1-282) (UniProt Q9WVI9)
T1 sequence: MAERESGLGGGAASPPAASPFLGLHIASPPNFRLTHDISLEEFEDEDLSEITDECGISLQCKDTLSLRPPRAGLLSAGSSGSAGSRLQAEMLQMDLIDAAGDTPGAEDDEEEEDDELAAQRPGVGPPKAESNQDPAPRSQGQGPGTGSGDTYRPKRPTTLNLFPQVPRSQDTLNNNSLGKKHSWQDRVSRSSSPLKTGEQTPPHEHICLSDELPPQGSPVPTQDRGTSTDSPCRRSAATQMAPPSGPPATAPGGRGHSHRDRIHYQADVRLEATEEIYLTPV

T2: GST-JIP1 (471-660) (UniProt Q9WVI9)
T2 sequence: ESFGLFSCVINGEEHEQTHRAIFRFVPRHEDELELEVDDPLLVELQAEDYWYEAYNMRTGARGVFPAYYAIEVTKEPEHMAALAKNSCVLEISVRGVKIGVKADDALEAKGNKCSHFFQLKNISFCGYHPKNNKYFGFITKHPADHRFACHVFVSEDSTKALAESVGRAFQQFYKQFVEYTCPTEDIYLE

T3: GST-JIP1 full-length fusion protein (UniProt Q9WVI9)
T3 sequence: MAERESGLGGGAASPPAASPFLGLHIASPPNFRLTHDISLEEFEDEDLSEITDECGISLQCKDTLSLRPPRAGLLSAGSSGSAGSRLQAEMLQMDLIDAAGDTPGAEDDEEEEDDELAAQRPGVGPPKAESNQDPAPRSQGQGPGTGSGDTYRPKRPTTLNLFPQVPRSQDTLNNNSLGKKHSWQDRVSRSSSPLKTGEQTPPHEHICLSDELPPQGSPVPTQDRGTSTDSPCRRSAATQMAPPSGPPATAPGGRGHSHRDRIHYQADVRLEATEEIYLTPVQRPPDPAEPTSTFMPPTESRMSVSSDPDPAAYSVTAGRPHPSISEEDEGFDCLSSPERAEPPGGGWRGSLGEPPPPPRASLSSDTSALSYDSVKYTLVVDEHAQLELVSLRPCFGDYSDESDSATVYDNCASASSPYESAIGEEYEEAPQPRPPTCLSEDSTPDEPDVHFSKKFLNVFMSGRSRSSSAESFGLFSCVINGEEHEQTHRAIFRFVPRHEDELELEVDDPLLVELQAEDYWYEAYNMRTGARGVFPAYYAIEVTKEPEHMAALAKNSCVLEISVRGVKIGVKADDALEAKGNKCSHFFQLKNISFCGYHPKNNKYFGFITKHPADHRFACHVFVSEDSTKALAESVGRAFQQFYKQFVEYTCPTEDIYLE

T4: HA-TAK1 wild type (UniProt Q62073)
T4 sequence: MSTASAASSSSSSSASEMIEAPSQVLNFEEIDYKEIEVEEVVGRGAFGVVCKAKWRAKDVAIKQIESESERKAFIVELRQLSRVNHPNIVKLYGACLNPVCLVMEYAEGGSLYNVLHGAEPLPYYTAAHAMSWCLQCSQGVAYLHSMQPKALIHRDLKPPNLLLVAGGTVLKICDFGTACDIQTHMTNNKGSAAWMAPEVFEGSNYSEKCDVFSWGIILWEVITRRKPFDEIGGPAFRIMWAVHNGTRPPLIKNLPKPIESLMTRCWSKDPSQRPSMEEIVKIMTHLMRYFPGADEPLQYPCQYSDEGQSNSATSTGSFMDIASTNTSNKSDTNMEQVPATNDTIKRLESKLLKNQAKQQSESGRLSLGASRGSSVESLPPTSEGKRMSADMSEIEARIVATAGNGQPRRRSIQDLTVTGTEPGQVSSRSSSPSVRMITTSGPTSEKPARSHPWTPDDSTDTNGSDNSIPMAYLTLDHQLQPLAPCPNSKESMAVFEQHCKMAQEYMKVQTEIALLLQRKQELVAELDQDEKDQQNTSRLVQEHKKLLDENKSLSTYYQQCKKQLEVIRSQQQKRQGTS

B1: HA-TAK1 wild type (enzyme, UniProt Q62073 1-579)
chain: T4 sequence
B2: JIP1 expressed from pT7-JIP1 (protein, UniProt Q9WVI9-2 1-660)
chain: T3 sequence
B3: Flag-TAB1 (protein, UniProt Q15750 1-504)
chain: MAAQRRSLLQSEQQPSWTDDLPLCHLSGVGSASNRSYSADGKGTESHPPEDSWLKFRSENNCFLYGVFNGYDGNRVTNFVAQRLSAELLLGQLNAEHAEADVRRVLLQAFDVVERSFLESIDDALAEKASLQSQLPEGVPQHQLPPQYQKILERLKTLEREISGGAMAVVAVLLNNKLYVANVGTNRALLCKSTVDGLQVTQLNVDHTTENEDELFRLSQLGLDAGKIKQVGIICGQESTRRIGDYKVKYGYTDIDLLSAAKSKPIIAEPEIHGAQPLDGVTGFLVLMSEGLYKALEAAHGPGQANQEIAAMIDTEFAKQTSLDAVAQAVVDRVKRIHSDTFASGGERARFCPRHEDMTLLVRNFGYPLGEMSQPTPSPAPAAGGRVYPVSVPYSSAQSTSKTSVTLSLVMPSQGQMVNGAHSASTLDEATPTLTNQSPTLTLQSTNTHTQSSSSSSDGGLFRSRPAHSLPPGEDGRVEPYVDFAEFYRLWSVDHGEQSVVTAP
B4: endogenous TAK1 of HeLa cells (enzyme, UniProt O43318 1-606)
chain: MSTASAASSSSSSSAGEMIEAPSQVLNFEEIDYKEIEVEEVVGRGAFGVVCKAKWRAKDVAIKQIESESERKAFIVELRQLSRVNHPNIVKLYGACLNPVCLVMEYAEGGSLYNVLHGAEPLPYYTAAHAMSWCLQCSQGVAYLHSMQPKALIHRDLKPPNLLLVAGGTVLKICDFGTACDIQTHMTNNKGSAAWMAPEVFEGSNYSEKCDVFSWGIILWEVITRRKPFDEIGGPAFRIMWAVHNGTRPPLIKNLPKPIESLMTRCWSKDPSQRPSMEEIVKIMTHLMRYFPGADEPLQYPCQYSDEGQSNSATSTGSFMDIASTNTSNKSDTNMEQVPATNDTIKRLESKLLKNQAKQQSESGRLSLGASRGSSVESLPPTSEGKRMSADMSEIEARIAATTAYSKPKRGHRKTASFGNILDVPEIVISGNGQPRRRSIQDLTVTGTEPGQVSSRSSSPSVRMITTSGPTSEKPTRSHPWTPDDSTDTNGSDNSIPMAYLTLDHQLQPLAPCPNSKESMAVFEQHCKMAQEYMKVQTEIALLLQRKQELVAELDQDEKDQQNTSRLVQEHKKLLDENKSLSTYYQQCKKQLEVIRSQQQKRQGTS

Experiments:
GST-JIP1 (1-282) = molecular target: T1, GST-JIP1 (1-282); experiment: pull-down; lysates of transfected Cos1 cells (48 h; 20 mM Tris-HCl pH 7.4, 137 mM NaCl, 2 mM EDTA, 1% Triton-X100) mixed with glutathione-Sepharose beads 12 h at 4°C to bring down the GST fusion protein; associated transfected or endogenous proteins detected by western blot
GST-JIP1 (471-660) = molecular target: T2, GST-JIP1 (471-660); experiment: as above
[1] = molecular target: T3, GST-JIP1 full-length fusion protein; experiment: as above
[2] = molecular target: T3, GST-JIP1 full-length fusion protein; experiment: SEC; extracts of Cos1 cells transfected with pGST-JIP1 alone or with pHA-TAK1, pFlag-TAB1, pFlag-MKK7, pFlag-JNK, without or with pCEFL-HA-VRK2A or pCEFL-HA-VRK2B, fractionated on Superose 12 10/300 GL (50 mM Tris-HCl pH 7.5, 1 mM EDTA, 100 mM KCl); fractions analysed by western blot
[3] = molecular target: T3, GST-JIP1 full-length fusion protein; experiment: pull-down; lysates of transfected Cos1 cells (48 h; 20 mM Tris-HCl pH 7.4, 137 mM NaCl, 2 mM EDTA, 1% Triton-X100) mixed with glutathione-Sepharose beads 12 h at 4°C to bring down the GST fusion protein; associated transfected or endogenous proteins detected by western blot; remark: listed apart in the source
[4] = molecular target: GST-VRK2A (mammalian expression) (human) (UniProt Q86Y07); experiment: as above
[5] = molecular target: GST-VRK2B (mammalian expression) (human) (UniProt Q86Y07); experiment: as above
HA-TAK1 wild type = molecular target: T4, HA-TAK1 wild type; experiment: SEC; extracts of Cos1 cells transfected with pGST-JIP1 alone or with pHA-TAK1, pFlag-TAB1, pFlag-MKK7, pFlag-JNK, without or with pCEFL-HA-VRK2A or pCEFL-HA-VRK2B, fractionated on Superose 12 10/300 GL (50 mM Tris-HCl pH 7.5, 1 mM EDTA, 100 mM KCl); fractions analysed by western blot
[6] = molecular target: endogenous JIP1 of HeLa cells (human (endogenous in HeLa)) (UniProt Q9UQF2); experiment: SEC; extracts of HeLa cells transfected with shControl (pSuperior-shVRK1) or shVRK2 plasmids fractionated on Superose 12 10/300 GL; endogenous proteins in the fractions detected by western blot

Molecule | binding (GST-JIP1 (1-282)) | binding (GST-JIP1 (471-660)) | binding [1] | binding [2] | binding [4] | binding [5] | other results
HA-VRK2B (from UniProt Q86Y07-2 1-397) (enzyme) | no binding | binds | binds | binds | – | – | –
HA-VRK2A (from UniProt Q86Y07-1 1-508) (enzyme) | no binding | binds | binds | binds | – | – | –
B1 | – | – | – | binds | binds | no binding | binding [3]: binds
B2 | – | – | – | – | binds | binds | –
B3 | – | – | – | binds | – | – | binding (HA-TAK1 wild type): binds
B4 | – | – | – | – | – | – | binding [6]: binds
